In publication PMC12219900, “Mechanistic insights into Bcs1-mediated mitochondrial membrane translocation of the folded Rieske protein” (The EMBO Journal, 2025):
Results are given in words; binding and its absence hold for the method and conditions named. For part of these data: A result given as binding can be weak or reduced; the word gives no strength.

Sequences of proteins named here, by UniProt entry; tags and fusion partners are left off. A change or cut given only in a name is not applied to a line headed by its entry.
UniProt P08067: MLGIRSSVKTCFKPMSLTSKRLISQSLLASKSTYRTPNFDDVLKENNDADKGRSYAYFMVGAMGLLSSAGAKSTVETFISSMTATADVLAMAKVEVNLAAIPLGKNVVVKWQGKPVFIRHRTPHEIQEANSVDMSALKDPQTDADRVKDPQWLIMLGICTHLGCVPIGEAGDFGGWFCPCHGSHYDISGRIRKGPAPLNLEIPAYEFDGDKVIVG

What was measured:
[1] = target: T1, Bcs1 (yeast Bcs1 heptamer) (S. cerevisiae) (UniProt P32839); assay: 'biochemically or by cryo-EM' (not further described); Bcs1 in the ADP-bound state; both purified
T1 sequence: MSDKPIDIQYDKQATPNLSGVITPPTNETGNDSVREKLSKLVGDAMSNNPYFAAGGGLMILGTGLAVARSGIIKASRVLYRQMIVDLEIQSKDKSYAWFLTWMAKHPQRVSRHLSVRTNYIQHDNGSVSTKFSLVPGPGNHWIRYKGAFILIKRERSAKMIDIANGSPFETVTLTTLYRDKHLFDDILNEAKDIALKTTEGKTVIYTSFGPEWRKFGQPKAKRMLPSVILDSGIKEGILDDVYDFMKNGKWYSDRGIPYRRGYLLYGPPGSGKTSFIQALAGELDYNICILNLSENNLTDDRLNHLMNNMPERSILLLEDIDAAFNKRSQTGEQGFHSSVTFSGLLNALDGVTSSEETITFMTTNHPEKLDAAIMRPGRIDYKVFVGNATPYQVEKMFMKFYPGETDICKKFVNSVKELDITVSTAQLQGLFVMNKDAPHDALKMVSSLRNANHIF

[2] = target: T1, Bcs1 (yeast Bcs1 heptamer) (S. cerevisiae); assay: cryo-EM structure; Bcs1 first incubated with Rip1-FeS in BN-buffer with 2.5 mM MgCl2 for 10 min at 25 °C, then 2 mM ATPγS for 10 min; ATPγS2 state; both purified
[3] = target: T1, Bcs1 (yeast Bcs1 heptamer) (S. cerevisiae); assay: native gel or EMSA; Blue native PAGE; Bcs1 incubated with Rip1-FeS for 10 min at 25 °C first, then 1 mM ATPγS, 2 mM MgCl2 for 10 min (Fig. 4A lane 6); both purified
[4] = target: T1, Bcs1 (yeast Bcs1 heptamer) (S. cerevisiae); assay: cryo-EM structure; in vitro reconstituted; 30 pmol Bcs1 (heptamer) with 10-fold excess of Rip1-FeS or Rip1-TM, 20 min at 25 °C in BN-buffer, no nucleotide (Apo1 state); both purified
[5] = target: T1, Bcs1 (yeast Bcs1 heptamer) (S. cerevisiae); assay: native gel or EMSA; Blue native PAGE; 30 pmol Bcs1 (heptamer) with Rip1 from 0 up to tenfold molar excess, no nucleotide; BN-buffer (15 mM HEPES pH 7.5, 30 mM KCl, 5% glycerol, 0.1% digitonin), 10 min at 25 °C; both purified
[6] = target: T1, Bcs1 (yeast Bcs1 heptamer) (S. cerevisiae); assay: condition: only Rip1-FeS with β-mercaptoethanol (disulfide C164-C180 reduced); native gel or EMSA; Blue native PAGE; Rip1-FeS with β-mercaptoethanol compared to Rip1-FeS purified in the absence of β-mercaptoethanol, added to Bcs1; both purified

binding [2]: binds
binding [3]: binds
binding [4]: binds
binding [5]: binds
binding [6]: no binding
Substance: Rip1-FeS (C-terminal FeS domain of Rip1, lacking the N-terminal TM segment) (from UniProt P08067) (domain or fragment)
binding [1]: no binding (only Bcs1 in the ADP-bound state)
